Results deposited as PubChem BioAssay AID1224828 (NIAID, 2016)
Aim: 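Find genes required for NF-kappaB p65 moving into the nucleus after LPS in mouse macrophages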 (primary screen). Cells: mouse RAW264.7 G9 macrophage reporter cells (GFP-p65, Tnf promoter-mCherry). Reagent: siRNA pool against mouse genes, 100 nM. Timing: 2 days siRNA transfection, then 40 min LPS before fixation. Conditions: LPS (Salmonella minnesota R595) at 10 ng/ml. Read-out: 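Imaged p65 nuclear translocation ratio, normalised to the plate median, converted to robust z-scores and averaged across two replicates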. Direction: p65 translocation robust z-score: higher = more nuclear NF-kappaB p65 after LPS than the plate median; nuclear/cytoplasmic p65 ratio: higher = more nuclear NF-kappaB p65. Rule for the call: 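Active if robust z is above 3.3 (negative regulators) or below -1.56, the Tlr4 control median (positive regulators); activity score 50 or more; control wells not called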. Calls: active = hit (p65 shift raised or lowered); inactive = no clear change.
In all, the deposit lists about 17,000 reagents; below is a random part of them. 762 of them (4.5%) count as active. 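Active calls include both raised and lowered p65 entry, mostly lowered; wells with fewer than 50 cells lack a z-score.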 The raw values are shown without normalisation.

gene	PubChem SID	p65 translocation robust z-score	nuclear/cytoplasmic p65 ratio, rep 1	nuclear/cytoplasmic p65 ratio, rep 2	low cell count flag	outcome
Pigm	SID315473096		1.42	1.24	fewer than 50 cells per well; well left out of scoring	inactive
Ctla2a	SID315466189	0.18	1.61	1.8	enough cells to score	inactive
Olfr257	SID315481931		1.31	1.21	fewer than 50 cells per well; well left out of scoring	inactive
Rars1	SID315476447	0.3	1.35	1.31	enough cells to score	inactive
Galntl6	SID315480909		1.23	1.16	fewer than 50 cells per well; well left out of scoring	inactive
Ccdc86	SID315476723	0.57	1.73	1.56	enough cells to score	inactive
Egr3	SID315466463	-0.69	1.41	1.25	enough cells to score	inactive
Mavs	SID315478644		1.77	1.7	fewer than 50 cells per well; well left out of scoring	inactive

A portion from the list above, for reference:
gene	PubChem SID	p65 translocation robust z-score	nuclear/cytoplasmic p65 ratio, rep 1	nuclear/cytoplasmic p65 ratio, rep 2	low cell count flag	outcome
Galntl6	SID315480909		1.23	1.16	fewer than 50 cells per well; well left out of scoring	inactive
Ccdc86	SID315476723	0.57	1.73	1.56	enough cells to score	inactive

Next reagents follow:
gene	PubChem SID	p65 translocation robust z-score	nuclear/cytoplasmic p65 ratio, rep 1	nuclear/cytoplasmic p65 ratio, rep 2	low cell count flag	outcome
Prmt2	SID315467300	-0.98	1.34	1.22	enough cells to score	inactive
Ankrd27	SID315479847	0.02	1.59	1.29	enough cells to score	inactive
Enox2	SID315477583	0.9	1.63	2.01	enough cells to score	inactive
Mcub	SID315472651		1.25	1.55	fewer than 50 cells per well; well left out of scoring	inactive
Fkbpl	SID315471442	0.38	1.44	1.46	enough cells to score	inactive
Pde4d	SID315479408	0.91	1.57	1.53	enough cells to score	inactive
Pde4d	SID315479409		1.34	1.33	fewer than 50 cells per well; well left out of scoring	inactive
Snx15	SID315473699		0.984	0.984	fewer than 50 cells per well; well left out of scoring	inactive
Atp5po	SID315470673	-0.76	1.45	1.44	enough cells to score	inactive
Sun1	SID315475441		1.36	1.09	fewer than 50 cells per well; well left out of scoring	inactive
Ccdc59	SID315471010	1.05	1.67	2.03	enough cells to score	inactive
Dynlt4	SID315479635		1.07	1.2	fewer than 50 cells per well; well left out of scoring	inactive
Dock1	SID315481610	-1.24	1.25	1.27	enough cells to score	inactive
Spa17	SID315469397	0.21	1.64	1.46	enough cells to score	inactive
Aifm2	SID315474224	-0.55	1.5	1.57	enough cells to score	inactive
Hcn3	SID315467162	0.32	1.46	1.44	enough cells to score	inactive
